Measurements published in article PMC5709735, “Real‐time detection of condensin‐driven DNA compaction reveals a multistep binding mechanism” (The EMBO Journal, 2017).
Numbering of substitutions follows the chain as printed. Names and notes keep the numbering of the source. No constants are given. Whether binding was seen depends on the method and setting. Some entries that bind do so weakly or less than the wild type. Blank lines part the entries; values can stand above or below the binder they belong to.

Columns and labels:
Experiment in all cases: tandem affinity chromatography + SEC; subunits co-overexpressed in budding yeast; complexes purified from interphase cell extracts by the His12 tag on Brn1 and the triple StrepII tag on Smc4, followed by a gel filtration step
[1] = biological target: T1, Smc4 Q302L (S. cerevisiae) (UniProt Q12267)
T1 sequence: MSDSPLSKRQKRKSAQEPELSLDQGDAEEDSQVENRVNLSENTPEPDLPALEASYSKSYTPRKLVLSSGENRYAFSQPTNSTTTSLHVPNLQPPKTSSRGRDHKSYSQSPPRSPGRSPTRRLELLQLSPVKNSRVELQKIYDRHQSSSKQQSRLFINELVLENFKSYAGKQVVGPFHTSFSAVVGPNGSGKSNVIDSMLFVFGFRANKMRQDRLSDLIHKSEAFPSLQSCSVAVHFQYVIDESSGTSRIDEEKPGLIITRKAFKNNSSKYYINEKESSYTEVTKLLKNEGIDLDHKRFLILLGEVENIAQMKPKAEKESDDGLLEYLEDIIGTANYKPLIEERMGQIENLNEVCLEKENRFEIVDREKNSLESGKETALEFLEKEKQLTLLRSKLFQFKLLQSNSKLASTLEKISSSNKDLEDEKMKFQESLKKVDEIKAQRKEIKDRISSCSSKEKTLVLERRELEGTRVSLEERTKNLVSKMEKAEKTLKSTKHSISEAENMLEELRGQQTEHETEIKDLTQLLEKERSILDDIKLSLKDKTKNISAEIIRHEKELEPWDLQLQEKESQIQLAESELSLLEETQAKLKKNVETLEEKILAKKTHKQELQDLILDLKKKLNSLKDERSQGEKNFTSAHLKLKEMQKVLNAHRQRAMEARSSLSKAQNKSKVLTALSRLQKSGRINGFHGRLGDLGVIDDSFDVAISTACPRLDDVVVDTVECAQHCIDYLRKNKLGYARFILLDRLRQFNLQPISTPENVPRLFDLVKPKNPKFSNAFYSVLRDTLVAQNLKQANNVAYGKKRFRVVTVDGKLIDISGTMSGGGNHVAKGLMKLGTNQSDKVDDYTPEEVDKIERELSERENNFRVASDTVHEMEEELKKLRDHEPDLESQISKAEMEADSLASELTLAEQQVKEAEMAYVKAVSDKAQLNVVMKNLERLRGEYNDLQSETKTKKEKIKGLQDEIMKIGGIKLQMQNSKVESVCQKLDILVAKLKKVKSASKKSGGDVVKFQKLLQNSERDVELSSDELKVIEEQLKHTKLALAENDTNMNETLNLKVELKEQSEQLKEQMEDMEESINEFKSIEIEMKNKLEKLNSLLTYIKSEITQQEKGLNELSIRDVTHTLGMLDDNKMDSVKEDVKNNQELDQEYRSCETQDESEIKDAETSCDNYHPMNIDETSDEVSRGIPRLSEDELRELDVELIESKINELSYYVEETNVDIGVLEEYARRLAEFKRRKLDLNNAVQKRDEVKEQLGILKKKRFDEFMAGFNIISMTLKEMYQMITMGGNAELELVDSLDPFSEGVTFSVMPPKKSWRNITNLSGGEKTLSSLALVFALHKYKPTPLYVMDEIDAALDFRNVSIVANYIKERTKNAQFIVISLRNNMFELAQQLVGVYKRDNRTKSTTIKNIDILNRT

Brn1 (S. cerevisiae) = biological target: T2, Brn1 (S. cerevisiae) (UniProt P38170)
T2 sequence: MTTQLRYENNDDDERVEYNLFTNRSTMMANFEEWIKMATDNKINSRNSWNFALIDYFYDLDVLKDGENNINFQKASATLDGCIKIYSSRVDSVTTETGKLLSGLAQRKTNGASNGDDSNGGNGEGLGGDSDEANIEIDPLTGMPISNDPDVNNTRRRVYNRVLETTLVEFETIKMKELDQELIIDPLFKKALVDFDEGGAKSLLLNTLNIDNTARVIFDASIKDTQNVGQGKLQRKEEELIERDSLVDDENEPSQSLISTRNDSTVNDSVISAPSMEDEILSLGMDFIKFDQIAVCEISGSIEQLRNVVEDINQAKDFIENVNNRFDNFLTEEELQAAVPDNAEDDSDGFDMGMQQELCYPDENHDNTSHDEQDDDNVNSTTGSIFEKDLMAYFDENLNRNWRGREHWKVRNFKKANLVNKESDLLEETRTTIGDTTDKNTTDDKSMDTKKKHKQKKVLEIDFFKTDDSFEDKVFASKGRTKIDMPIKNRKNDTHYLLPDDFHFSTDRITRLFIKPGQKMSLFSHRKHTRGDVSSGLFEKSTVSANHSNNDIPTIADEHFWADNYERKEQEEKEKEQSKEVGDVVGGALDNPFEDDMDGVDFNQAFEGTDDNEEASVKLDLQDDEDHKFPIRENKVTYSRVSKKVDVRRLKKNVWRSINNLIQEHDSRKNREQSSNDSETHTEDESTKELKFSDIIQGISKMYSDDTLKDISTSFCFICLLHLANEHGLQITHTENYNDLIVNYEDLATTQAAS

[2] = biological target: T3, Brn1 K409D, R411D, K414D, K451D, K452D, K456D, K457D (S. cerevisiae) (UniProt P38170)
T3 sequence: T2 sequence with K409D, R411D, K414D, K451D, K452D, K456D, K457D

- binding [1]: binds
- binding (Brn1 (S. cerevisiae)): binds
B1: Smc2 Q147L (protein, UniProt P38989 1-1170)
chain: MKVEELIIDGFKSYATRTVITDWDPQFNAITGLNGSGKSNILDAICFVLGIASMSTVRASSLQDLIYKRGQAGVTKASVTIVFDNTDKSNSPIGFTNSPQISVTRQVVLGGTSKYLINGHRAPQQSVLQLFQSVQLNINNPNFLIMLGKITKVLNMKPSEILSLIEEAAGTKMFEDRREKAERTMSKKETKLQENRTLLTEEIEPKLEKLRNEKRMFLEFQSTQTDLEKTERIVVSYEYYNIKHKHTSIRETLENGETRMKMLNEFVKKTSEEIDSLNEDVEEIKLQKEKELHKEGTISKLENKENGLLNEISRLKTSLSIKVENLNDTTEKSKALESEIASSSAKLIEKKSAYANTEKDYKMVQEQLSKQRDLYKRKEELVSTLTTGISSTGAADGGYNAQLAKAKTELNEVSLAIKKSSMKMELLKKELLTIEPKLKEATKDNELNVKHVKQCQETCDKLRARLVEYGFDPSRIKDLKQREDKLKSHYYQTCKNSEYLKRRVTNLEFNYTKPYPNFEASFVHGVVGQLFQIDNDNIRYATALQTCAGGRLFNVVVQDSQTATQLLERGRLRKRVTIIPLDKIYTRPISSQVLDLAKKIAPGKVELAINLIRFDESITKAMEFIFGNSLICEDPETAKKITFHPKIRARSITLQGDVYDPEGTLSGGSRNTSESLLVDIQKYNQIQKQIETIQADLNHVTEELQTQYATSQKTKTIQSDLNLSLHKLDLAKRNLDANPSSQIIARNEEILRDIGECENEIKTKQMSLKKCQEEVSTIEKDMKEYDSDKGSKLNELKKELKLLAKELEEQESESERKYDLFQNLELETEQLSSELDSNKTLLHNHLKSIESLKLENSDLEGKIRGVEDDLVTVQTELNEEKKRLMDIDDELNELETLIKKKQDEKKSSELELQKLVHDLNKYKSNTNNMEKIIEDLRQKHEFLEDFDLVRNIVKQNEGIDLDTYRERSKQLNEKFQELRKKVNPNIMNMIENVEKKEAALKTMIKTIEKDKMKIQETISKLNEYKRETLVKTWEKVTLDFGNIFADLLPNSFAKLVPCEGKDVTQGLEVKVKLGNIWKESLIELSGGQRSLIALSLIMALLQFRPAPMYILDEVDAALDLSHTQNIGHLIKTRFKGSQFIVVSLKEGMFANANRVFRTRFQDGTSVVSIM

- binding [2]: binds
- binding (Brn1 (S. cerevisiae)): binds
B2: Smc4 (protein, UniProt Q12267 1-1418)
chain: T1 sequence with L302Q

- binding (Brn1 (S. cerevisiae)): binds
B3: Smc4 Q302L (protein, UniProt Q12267 1-1418)
chain: T1 sequence
